This note sets out measurements from US8629135B2, “Pharmaceutical compositions comprising RET inhibitors and methods for the treatment of cancer” (Queen's University at Kingston, priority 2008, dated 2014).

Sequences of proteins named here, by UniProt entry; tags and fusion partners are left off. Residues count along the entry.
UniProt P07949, 29-1114: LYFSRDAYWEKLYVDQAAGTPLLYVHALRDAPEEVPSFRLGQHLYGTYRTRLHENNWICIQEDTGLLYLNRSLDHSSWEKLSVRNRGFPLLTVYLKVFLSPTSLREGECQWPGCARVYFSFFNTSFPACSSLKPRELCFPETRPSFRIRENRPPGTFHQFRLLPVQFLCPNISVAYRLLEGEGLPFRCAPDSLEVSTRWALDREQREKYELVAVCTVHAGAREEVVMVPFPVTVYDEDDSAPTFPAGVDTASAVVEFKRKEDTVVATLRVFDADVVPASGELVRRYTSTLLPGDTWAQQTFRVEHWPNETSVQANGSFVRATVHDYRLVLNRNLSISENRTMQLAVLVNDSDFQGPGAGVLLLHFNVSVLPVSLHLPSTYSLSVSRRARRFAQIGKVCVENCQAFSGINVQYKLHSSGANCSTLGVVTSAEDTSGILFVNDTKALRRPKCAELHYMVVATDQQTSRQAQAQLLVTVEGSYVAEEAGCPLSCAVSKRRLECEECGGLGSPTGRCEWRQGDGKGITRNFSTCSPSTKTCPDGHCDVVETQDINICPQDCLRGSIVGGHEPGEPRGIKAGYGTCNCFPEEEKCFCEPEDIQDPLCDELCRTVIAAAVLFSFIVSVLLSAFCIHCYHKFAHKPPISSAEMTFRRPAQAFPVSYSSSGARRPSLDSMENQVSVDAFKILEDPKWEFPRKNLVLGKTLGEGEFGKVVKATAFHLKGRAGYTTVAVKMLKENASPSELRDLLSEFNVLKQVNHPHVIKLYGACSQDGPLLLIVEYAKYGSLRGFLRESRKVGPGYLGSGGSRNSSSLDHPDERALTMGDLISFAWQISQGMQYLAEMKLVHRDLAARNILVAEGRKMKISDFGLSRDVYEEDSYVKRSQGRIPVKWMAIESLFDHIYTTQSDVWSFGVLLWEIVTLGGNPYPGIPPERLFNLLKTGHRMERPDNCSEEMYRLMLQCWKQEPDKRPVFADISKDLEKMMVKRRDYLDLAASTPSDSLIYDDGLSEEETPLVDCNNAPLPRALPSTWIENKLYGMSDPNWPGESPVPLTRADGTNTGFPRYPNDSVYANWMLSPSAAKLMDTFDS

The structures appear in SMILES notation. Structures can show the parent of a compound that is named as a salt. Where only a bound is given, the exact number is not on record here.

For experiment [1], the target named is T1, RET (Homo sapiens (Human), UniProt P07949). Briefly: Protein based RET kinase assay with purified recombinant GST-RET. It is filed as biochemical.
Experiment [2] has as its target T1, RET. The experiment in a line: RET autophosphorylation (pY905 Western blot) in HEK293 cells stably expressing RET. The conditions noted are these: EC50, cell based assay. (Immunoblotting shows a protein as a band on a membrane.)

As usually defined, the IC50 is the concentration at which inhibition is half-maximal. Broadly, the EC50 is the concentration needed to bring the measured effect to its halfway point. A low value points to higher potency in that assay. As for `CN(C)CC/C=C1\c2ccccc2COc2ccccc21` [SW-07, Doxepin Hydrochloride], on RET [1], the IC50 was greater than 20 µM. At RET [2], this compound yielded an EC50 greater than 10 µM.
